The text below walks through data of US10377778B2, “Lead and thorium compounds” (Sciencons AS, priority 2017, dated 2019).

Series [1] deals with C4-2 PSMA positive human prostate cells xenografts. Kind of series: Comparative therapy experiment in nude mice with C4-2 xenografts. Type of series: in vivo. Here is the method:
Male nude mice were inoculated in the flanks with C4-2 PSMA positive human prostate cells and 2 weeks later when tumors were 5-7 mm in diameters. Groups of 8 animals each received saline, 52 MBq of ^177Lu-PSMA-617 or 320 kBq of ^212Pb-p-SCN-Bn-TCMC-PSMA ligand 1. Animals were sacrificed when tumor size reached 20 mm due to animal welfare requirements. […] For ^212Pb the effective half-life was assumed to be 10.6 h, 10% of injected dose per gram decays in tumor and 100% of radiation in a tumor is absorbed in the tumor, 100% retention of ^212Pb and daughters in the tumors and 8 MeV radiation energy per decay. The tumor dosimetry for the injected activities gave on average 35.9 Gy to tumors for ^177Lu-PSMA-617 and 2.06 Gy to tumors for ^212Pb-p-SCN-Bn-TCMC-PSMA ligand 1 groups respectively.

The nature of series [2]: Dosimetry estimate for dual targeting ^224Ra cation and ^212Pb-labeled PSMA targeting urea derivative. Conditions: Assuming 1:1 ratio between ^224Ra and ^212Pb; 10.5 MBq per patient.

For `O=C([O-])CN1CCN(CC(=O)[O-])CCN(CC(=O)NCC2CCC(C(=O)N[C@@H](Cc3ccc4ccccc4c3)C(=O)NCCCC[C@H](NC(=O)N[C@@H](CCC(=O)O)C(=O)O)C(=O)O)CC2)CCN(CC(=O)[O-])CC1.[177Lu+3]` (stereo partly shown) [^177Lu-PSMA-617, reference compound], the “Radiation dose (Gy) delivered, times higher than with ^212Pb-p-SCN-Bn-TCMC-PSMA ligand 1” value in series [1] (radiation dose estimates) is given as 17 times.

On to `NC(=O)CN1CCN(CC(N)=O)CCN(CC(N)=O)C(Cc2ccc(NC(=S)NCC3CCC(C(=O)NC(Cc4ccc5ccccc5c4)C(=O)NCCCCC(NC(=O)NC(CCC(=O)O)C(=O)O)C(=O)O)CC3)cc2)CN(CC(N)=O)CC1.[212Pb+2]` (stereo not shown) [^212Pb-p-SCN-Bn-TCMC-PSMA ligand 1], for which, in series [2], the “Dose assessment, Kidneys” value was 0.36 Sv/10.5 MBq and the “Dose assessment, Salivary glands” value is given as 0.60 Sv/10.5 MBq. For the same compound, the “Radiobiological effectiveness (RBE) vs ^177Lu-PSMA-617” value in series [1] (from tumor growth delay and dose estimates) was “at least 17”.
